According to PubChem BioAssay AID256 (DTP/NCI, 2004):
The list does not hold the whole screen: it gathers tests that were run many times, whatever their T/C, doses with no T/C, and many T/C values between a quarter and a half above the control. Further doses and runs are listed elsewhere. T/C: endpoint of the treated group in % of that of the vehicle group. Some doses have a count of surviving animals in place of a T/C: the source files T/C as zero there, which appears to mark a toxic dose or a test without result, not a measured value. Some doses without a T/C left all or most animals alive at the check, yet need not have been tolerated: survival well below the control is almost never listed, so the zero probably covers shortened survival too. Counts of survivors are from the toxicity check (mostly the fifth day) where no day follows; animals may have died later. Schedules are NCI's codes, taken here to give the interval after Q, in days (D) or hours (H), and the number of doses after X. For survival time, this PubChem deposit counts one and a half times the control or more as active, and values a quarter to a half above the control carry no call in these data; other NCI protocols may use other cut-offs. Some doses were run more than once; the values are given in rising order. Some T/C values are followed by the survivors on the day toxicity was checked, most often the fifth; where none is given, no animal had died by that day.

Test system: CD2F1 mice, L1210 leukemia ip, survival T/C
Assay: NCI In Vivo Anticancer Drug Screen. Data for tumor model L1210 Leukemia (intraperitoneal) in CD2F1 (CDF1) mice
Conditions: T/C endpoint: mean survival time, higher T/C = longer survival
Procedure, shortened: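 Ratio T/C, where T is the treated-group value and C the vehicle-dosed control value, from mice implanted with a transplantable tumor.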

[1] = dose: 100.0 mg/kg/injection, schedule: Q04DX003 (ip), vehicle: saline
[2] = dose: 200.0 mg/kg/injection, schedule: Q04DX003 (ip), vehicle: saline
[3] = dose: 400.0 mg/kg/injection, schedule: Q04DX003 (ip), vehicle: saline
[4] = dose: 200.0 mg/kg/injection, schedule: Q04DX002 (ip), vehicle: saline with Tween-80
[5] = dose: 400.0 mg/kg/injection, schedule: Q04DX002 (ip), vehicle: saline with Tween-80
[6] = dose: 400.0 mg/kg/injection, schedule: Q01DX009 (ip), vehicle: saline with Tween-80

For `CCOc1ccc(C(=O)OC(CN(CC)CC)c2ccccc2)cc1` (configuration not stated), the survivor count [1] was 1 of 3, the survivor count [2] was 0 of 3 and the survivor count [3] was 0 of 3.

With `CN(CCCCl)CCCCl` the survivor count (dose: 150.0 mg/kg/injection, schedule: Q01DX001 (ip), vehicle: saline) was 1 of 6 and the survivor count (dose: 300.0 mg/kg/injection, schedule: Q01DX001 (ip), vehicle: saline) was 0 of 6.

`O=C1N(c2ccccc2)SN2C3C=CC(C4CC43)N12` (configuration not stated) was tested, and the survivor count (dose: 50.0 mg/kg/injection, schedule: Q04DX002 (ip), vehicle: saline with Tween-80) was 0 of 3, the survivor count (dose: 100.0 mg/kg/injection, schedule: Q04DX002 (ip), vehicle: saline with Tween-80) was 0 of 3 and the survivor count [4] was 0 of 3. For the same compound, the survivor count [5] was 0 of 3.

`N#CC(OC(=O)c1ccccc1)c1cccc([N+](=O)[O-])c1` (configuration not stated) was tested, and the survivor count [6] was 5 of 6.

`CN(C)C(=S)Nc1ccccc1` was tested, and the survivor count [6] was 3 of 6.

`Cc1ccc(S(=O)(=O)OCC2C3CCC(C3)C2COS(=O)(=O)c2ccc(C)cc2)cc1` (configuration not stated) was tested, and the survivor count [4] was 3 of 3 and the survivor count [5] was 3 of 3.

In the case of `Cc1cccc(Cl)c1NC(=O)C(C)N1CCCC1` (configuration not stated), the survivor count (dose: 100.0 mg/kg/injection, schedule: Q04DX003 (ip), vehicle: saline sonified) is reported as 5 of 6, the survivor count (dose: 200.0 mg/kg/injection, schedule: Q04DX003 (ip), vehicle: saline sonified) is reported as 2 of 6 and the survivor count (dose: 400.0 mg/kg/injection, schedule: Q04DX003 (ip), vehicle: saline sonified) is reported as 0 of 6.

For `CN(Cc1cnc2nc(N)nc(N)c2n1)c1ccc(C(=O)NC(CCC(=O)NC(CCC(=O)NC(CCC(=O)NC(CCC(=O)O)C(=O)O)C(=O)O)C(=O)O)C(=O)O)cc1` (configuration not stated), the T/C (dose: 2.0 mg/kg/injection, schedule: Q01DX005 (ip), vehicle: sodium bicarbonate) was 127 % of control, the T/C (dose: 4.0 mg/kg/injection, schedule: Q01DX005 (ip), vehicle: sodium bicarbonate) was 132 and 132 % of control [5 of 6 alive] and the T/C (dose: 8.0 mg/kg/injection, schedule: Q01DX005 (ip), vehicle: sodium bicarbonate) was 141 and 144 % of control. For the same compound, the T/C (dose: 16.0 mg/kg/injection, schedule: Q01DX005 (ip), vehicle: sodium bicarbonate) was 149 % of control and the survivor count (dose: 32.0 mg/kg/injection, schedule: Q01DX005 (ip), vehicle: sodium bicarbonate) was 4 of 6.

With `OCCOCCN1CCN(CC/C=C2\c3ccccc3Sc3ccc(C(F)(F)F)cc32)CC1` the survivor count (dose: 6.25 mg/kg/injection, schedule: Q01DX009 (ip), vehicle: saline sonified) was 5 of 6, the survivor count (dose: 12.5 mg/kg/injection, schedule: Q01DX009 (ip), vehicle: saline sonified) was 4 of 6 and the T/C (dose: 12.5 mg/kg/injection, schedule: Q04DX003 (ip), vehicle: saline, evaluated on day 20) was 125 % of control. The T/C (dose: 12.5 mg/kg/injection, schedule: Q04DX003 (ip), vehicle: saline, evaluated on day 30) was 138 % of control, the T/C (dose: 18.0 mg/kg/injection, schedule: Q04DX003 (ip), vehicle: saline with Tween-80) was 133 % of control and the survivor count (dose: 25.0 mg/kg/injection, schedule: Q01DX009 (ip), vehicle: saline sonified) was 0 of 6. The T/C (dose: 25.0 mg/kg/injection, schedule: Q04DX003 (ip), vehicle: saline) was 130 and 132 % of control, the T/C (dose: 50.0 mg/kg/injection, schedule: Q04DX003 (ip), vehicle: saline) was 128 % of control and the survivor count [1] was 0 of 6. The survivor count [2] was 0 of 6 and the survivor count [3] was 0 of 6.

For `CCOC(=O)Nc1cc2c(ncn2-c2ccccc2)c(N)n1`, the survivor count (dose: 400.0 mg/kg/injection, schedule: Q01DX001 (ip), vehicle: Klucel (hydroxypropylcellulose) (HPC)) was 3 of 6.

With `C(#[C][Ge]([C]#Cc1ccccc1)([C]#Cc1ccccc1)[C]#Cc1ccccc1)c1ccccc1` the survivor count (dose: 100.0 mg/kg/injection, schedule: Q01DX009 (ip), vehicle: saline with Tween-80) was 6 of 6 and the survivor count [6] was 5 of 6.

With `[Cu+2].[NH-]CC(=O)O.[NH-]CC(=O)O` the survivor count (dose: 20.0 mg/kg/injection, schedule: Q01DX009 (ip), vehicle: saline) was 0 of 6.

For `O=C(O)c1cccs1`, the survivor count (dose: 400.0 mg/kg/injection, schedule: Q04DX003 (ip), vehicle: other) was 3 of 6.
